Measurements reported in PubChem BioAssay AID1259308 (NCATS, 2017).
In all, the deposit lists about 59,000 reagents; shown is a random part of them. In the full data, about 1,510 (2.6%) were called active. 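Calls use total luciferase alone and ignore viability, so some active siRNAs may act by altering cell number.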 Unmarked entries are inactive. Reagents against one gene are numbered here. Further read-outs or replicates are left out here. Reagent sequences are not shown.

Screen: 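Knock-downs that increase output of a recombinant reporter protein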 (primary screen)
Cell system: human HEK293 embryonic kidney cells stably expressing firefly luciferase (HEK-CMV-Luc2-Hygro)
Knock-down reagent: single siRNA against human genes, 0.8 pmol siRNA per well
Duration: 72 h
Read-out: 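Luciferase light (ONE-Glo) measured on one replicate plate set and viability (CellTiter-Glo) on the other, scaled to a negative control siRNA, with robust z-scores and luciferase per cell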
Reading the numbers: total luciferase, z-score and total luciferase, % of control: higher = more reporter protein produced; luciferase per cell, z-score: higher = more reporter output per viable cell
Call rule: 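Active when the median/MAD z-score for overall luciferase is greater than 3; a gene was taken forward for validation with new siRNAs if at least two of its three siRNAs passed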
Meaning of the calls: active = raised luciferase; inactive = no rise

Gene	reagent no.	total luciferase, z-score	total luciferase, % of control	luciferase per cell, z-score
IKBKG	1	1.48	111	0.645
IKBKG	2	0.436	90.6	-0.542
IKBKG	3	-1.64	49.2	-1.72
PCDHB14 (protocadherin beta 14)	1	-1.33	55.5	-1.34
PCDHB14 (protocadherin beta 14)	2	-0.166	78.6	1.23
PCDHB14 (protocadherin beta 14)	3	-0.231	77.3	-0.659
SACK1A (scaffolding CK1 anchoring protein A)	1	0.871	99.2	1.15
SACK1A (scaffolding CK1 anchoring protein A)	2	0.907	99.9	1.35
SACK1A (scaffolding CK1 anchoring protein A)	3	2.02	122	1.6
CCDC122 (coiled-coil domain containing 122)	1	-0.23	77.3	1.85
CCDC122 (coiled-coil domain containing 122)	2	1.45	111	1.41
CCDC122 (coiled-coil domain containing 122)	3	-0.766	66.6	-1.13
CALM1 (calmodulin 1)	1	2.52	132	1.44
CALM1 (calmodulin 1)	2	-1.31	55.8	-0.0968
CALM1 (calmodulin 1)	3	-0.578	70.4	-0.626
SMIM30 (small integral membrane protein 30)	1	0.0398	82.7	2.36
SMIM30 (small integral membrane protein 30)	2	0.128	84.4	-0.163
SMIM30 (small integral membrane protein 30)	3	-0.0625	80.6	-0.103
NDFIP2 (Nedd4 family interacting protein 2)	1	-1.03	61.3	-0.461
NDFIP2 (Nedd4 family interacting protein 2)	2	-0.7	68	-0.799
NDFIP2 (Nedd4 family interacting protein 2)	3	0.357	89	0.285
BLCAP (BLCAP apoptosis inducing factor)	1	1.54	112	1.18
BLCAP (BLCAP apoptosis inducing factor)	2	-0.175	78.4	0.276
BLCAP (BLCAP apoptosis inducing factor)	3	0.855	98.9	0.613
RAPGEF6 (Rap guanine nucleotide exchange factor 6)	1	0.908	99.9	0.0198
RAPGEF6 (Rap guanine nucleotide exchange factor 6)	2	0.425	90.3	0.0891
RAPGEF6 (Rap guanine nucleotide exchange factor 6)	3	-0.137	79.2	-0.553
GSTP1 (glutathione S-transferase pi 1)	1	1.85	119	2.39
GSTP1 (glutathione S-transferase pi 1)	2	-0.295	76	-0.746
GSTP1 (glutathione S-transferase pi 1)	3	0.0854	83.6	-0.196
CISD2 (CDGSH iron sulfur domain 2)	1	-0.112	79.7	-0.726
CISD2 (CDGSH iron sulfur domain 2)	2	-1.44	53.2	-0.588
CISD2 (CDGSH iron sulfur domain 2)	3	-0.812	65.7	-0.435
ZNF532 (zinc finger protein 532)	1	-0.995	62.1	-0.296
ZNF532 (zinc finger protein 532)	2	0.193	85.7	-0.424
ZNF532 (zinc finger protein 532)	3	-1.49	52.3	-1.52
TBC1D29P (TBC1 domain family member 29, pseudogene)	1	-0.977	62.5	-0.881
TBC1D29P (TBC1 domain family member 29, pseudogene)	2	0.128	84.4	1.41
TBC1D29P (TBC1 domain family member 29, pseudogene)	3	-0.551	70.9	-0.407
CTNNBL1 (catenin beta like 1)	1	-1.08	60.4	-0.751
CTNNBL1 (catenin beta like 1)	2	1.97	121	1.68
CTNNBL1 (catenin beta like 1)	3	2.65	135	1.79
LCE4A (late cornified envelope 4A)	1	0.881	99.4	0.541
LCE4A (late cornified envelope 4A)	2	0.406	90	-0.0858
LCE4A (late cornified envelope 4A)	3	-0.94	63.2	-0.608
YIPF2 (Yip1 domain family member 2)	1	-0.496	72	-0.136
YIPF2 (Yip1 domain family member 2)	2	1.51	112	0.825
YIPF2 (Yip1 domain family member 2)	3	1.23	106	1.22
NR2F6 (nuclear receptor subfamily 2 group F member 6)	1	-0.922	63.5	-1.28
NR2F6 (nuclear receptor subfamily 2 group F member 6)	2	-0.715	67.7	-1.35
NR2F6 (nuclear receptor subfamily 2 group F member 6)	3	-0.902	64	-1.23
SPEM1 (spermatid maturation 1)	1	0.0393	82.7	0.239
SPEM1 (spermatid maturation 1)	2	0.228	86.4	-0.114
SPEM1 (spermatid maturation 1)	3	1.11	104	2.05
USP49 (ubiquitin specific peptidase 49)	1	6.17 (active)	205	4.58
USP49 (ubiquitin specific peptidase 49)	2	-0.859	64.8	0.238
USP49 (ubiquitin specific peptidase 49)	3	0.636	94.5	0.594

Part of the list above, reformatted.
{"Gene":"SACK1A (scaffolding CK1 anchoring protein A)","reagent no.":2,"total luciferase, z-score":0.907,"total luciferase, % of control":99.9,"luciferase per cell, z-score":1.35}
{"Gene":"SACK1A (scaffolding CK1 anchoring protein A)","reagent no.":3,"total luciferase, z-score":2.02,"total luciferase, % of control":122,"luciferase per cell, z-score":1.6}
{"Gene":"CCDC122 (coiled-coil domain containing 122)","reagent no.":1,"total luciferase, z-score":-0.23,"total luciferase, % of control":77.3,"luciferase per cell, z-score":1.85}
{"Gene":"CCDC122 (coiled-coil domain containing 122)","reagent no.":2,"total luciferase, z-score":1.45,"total luciferase, % of control":111,"luciferase per cell, z-score":1.41}
{"Gene":"CCDC122 (coiled-coil domain containing 122)","reagent no.":3,"total luciferase, z-score":-0.766,"total luciferase, % of control":66.6,"luciferase per cell, z-score":-1.13}
{"Gene":"CALM1 (calmodulin 1)","reagent no.":1,"total luciferase, z-score":2.52,"total luciferase, % of control":132,"luciferase per cell, z-score":1.44}
{"Gene":"CALM1 (calmodulin 1)","reagent no.":2,"total luciferase, z-score":-1.31,"total luciferase, % of control":55.8,"luciferase per cell, z-score":-0.0968}
{"Gene":"CALM1 (calmodulin 1)","reagent no.":3,"total luciferase, z-score":-0.578,"total luciferase, % of control":70.4,"luciferase per cell, z-score":-0.626}
